Results as given in PMC9038691, “A structural exposé of noncanonical molecular reactivity within the protein tyrosine phosphatase WPD loop” (Nature communications, 2022).
No constants are given. Whether binding was seen depends on the method and setting.

By UniProt entry, the sequences of proteins in these tests, tags left out. Residues count along the entry.
UniProt Q9ZVN4, residues 49-215: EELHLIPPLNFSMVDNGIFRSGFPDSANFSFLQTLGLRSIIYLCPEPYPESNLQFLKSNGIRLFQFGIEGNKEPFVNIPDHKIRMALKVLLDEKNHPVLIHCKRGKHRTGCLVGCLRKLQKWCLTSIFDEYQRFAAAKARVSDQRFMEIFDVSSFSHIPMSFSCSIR

Target: AtPFA-DSP1^49–215 (Arabidopsis thaliana Plant and Fungi Atypical Dual Specificity Phosphatase 1, core catalytic domain) (Arabidopsis thaliana) (UniProt Q9ZVN4)
Test: SEC; gel filtration of the purified AtPFA-DSP1^49–215 construct in solution (Supplementary Fig. 2d); both purified

For “AtPFA-DSP1^49–215 (Arabidopsis thaliana Plant and Fungi Atypical Dual Specificity Phosphatase 1, core catalytic domain) (from UniProt Q9ZVN4 49-215) (domain or fragment)”, the binding was “no binding”.
